Values of other authors as cited in patent US10828316B2, “Method of treating bacterial infections” (priority 2016, dated 2020).
Values after ≈ are worked out from the molar mass of the structure shown. At least one structure is not confirmed: it was looked up by name or label, or the drawing left a doubt.

Test system: K. pneumoniae EN0262
Settings: commercial antibiotics, data provided by IMBIM, BMC, Uppsala University; cited from earlier work

C[C@@H](O)[C@H]1C(=O)N2C(C(=O)O)=C(SCCN=CN)C[C@H]12 [imipenem]
MIC: >4 µg/mL

CN(C)[C@@H]1C(O)=C(C(N)=O)C(=O)[C@@]2(O)C(O)=C3C(=O)c4c(O)cccc4[C@@](C)(O)[C@H]3C[C@@H]12 [tetracycline]
MIC: 4 µg/mL (≈ 9 µM)
